Results are given in words; binding and its absence hold for the method and conditions named. Some results given as binding are weak or reduced against the parent protein; the word gives no strength.
Experiments:
[1] = molecular target: T1, peptide 2 (64ENLII68) (human); assay: pepscan on 12-mer and 30-mer IL-15 peptides, 330 nM fusion protein
T1 sequence (peptide): ENLII

Protein sequences, listed by entry. Tags and fused reporters are not part of them. Lines headed by an entry give the natural chain unless they say otherwise; changes in a name come on top.
UniProt Q13261: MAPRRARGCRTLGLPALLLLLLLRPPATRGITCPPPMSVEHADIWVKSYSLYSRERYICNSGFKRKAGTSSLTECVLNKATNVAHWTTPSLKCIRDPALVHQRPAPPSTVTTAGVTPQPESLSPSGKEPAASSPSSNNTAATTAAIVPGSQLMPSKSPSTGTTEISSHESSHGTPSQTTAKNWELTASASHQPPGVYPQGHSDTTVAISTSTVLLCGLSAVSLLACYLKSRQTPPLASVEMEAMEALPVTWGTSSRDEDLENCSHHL

[2] = molecular target: T2, peptide 1 (44…52) (human); assay: as above
T2 sequence (peptide): LLELQVISL

[3] = molecular target: T1, peptide 2 (64ENLII68) (human); assay: pepscan
[4] = molecular target: T2, peptide 1 (44…52) (human); assay: pepscan

Measured: binding

soluble IL-15Rα-IL-2 fusion protein (from UniProt Q13261 31-205; P60568 21-153)
binds: [1] | [2] | [3] | [4]

From US20110158938A1
